Results reported in PMC9137164.
Results are given in words; binding and its absence hold for the method and conditions named. In cells and extracts the contact can be indirect. Some entries that bind do so weakly or less than the wild type.

Amino acid sequences for entries named in this document (tags omitted).
UniProt Q9Y572: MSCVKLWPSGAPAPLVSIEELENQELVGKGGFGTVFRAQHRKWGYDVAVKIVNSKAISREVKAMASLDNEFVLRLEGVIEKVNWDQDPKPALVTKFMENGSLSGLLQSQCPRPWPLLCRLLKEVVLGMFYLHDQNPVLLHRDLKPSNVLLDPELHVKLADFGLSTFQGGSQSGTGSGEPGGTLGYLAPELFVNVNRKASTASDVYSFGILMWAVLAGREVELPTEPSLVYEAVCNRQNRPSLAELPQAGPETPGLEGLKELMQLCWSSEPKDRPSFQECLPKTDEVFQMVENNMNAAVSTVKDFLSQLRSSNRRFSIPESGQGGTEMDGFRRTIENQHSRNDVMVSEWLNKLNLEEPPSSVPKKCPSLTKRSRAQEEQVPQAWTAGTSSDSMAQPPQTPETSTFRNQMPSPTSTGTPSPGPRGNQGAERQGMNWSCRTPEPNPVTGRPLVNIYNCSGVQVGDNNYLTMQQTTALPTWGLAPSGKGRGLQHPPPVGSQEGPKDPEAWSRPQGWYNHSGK
UniProt Q13546: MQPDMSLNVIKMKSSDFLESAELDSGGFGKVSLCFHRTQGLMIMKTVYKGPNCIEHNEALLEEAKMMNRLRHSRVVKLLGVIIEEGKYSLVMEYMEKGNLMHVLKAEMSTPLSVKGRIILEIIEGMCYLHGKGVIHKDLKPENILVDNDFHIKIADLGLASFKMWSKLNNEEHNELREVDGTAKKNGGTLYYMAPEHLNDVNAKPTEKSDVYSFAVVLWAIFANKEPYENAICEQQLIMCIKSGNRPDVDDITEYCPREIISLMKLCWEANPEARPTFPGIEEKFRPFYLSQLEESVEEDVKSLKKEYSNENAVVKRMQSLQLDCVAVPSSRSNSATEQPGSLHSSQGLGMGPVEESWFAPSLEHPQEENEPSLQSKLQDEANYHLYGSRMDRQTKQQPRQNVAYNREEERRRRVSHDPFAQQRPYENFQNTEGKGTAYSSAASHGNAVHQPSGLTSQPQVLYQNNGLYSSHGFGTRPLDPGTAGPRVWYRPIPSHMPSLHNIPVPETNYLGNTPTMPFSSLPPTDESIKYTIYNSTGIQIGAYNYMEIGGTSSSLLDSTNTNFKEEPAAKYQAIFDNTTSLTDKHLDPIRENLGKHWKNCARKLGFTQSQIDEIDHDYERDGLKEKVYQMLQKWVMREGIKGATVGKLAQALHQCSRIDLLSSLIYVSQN

Target: RIP3 (human (endogenous in SH-SY5Y)) (UniProt Q9Y572)
Assay: co-IP; endogenous proteins in SH-SY5Y lysate; antibody on Protein A/G magnetic beads, western blot; cells normal, OGD/R, OGD/R + NAC, Drp1-S616A or Drp1-S616D, CIRI-derived exosomes

binding: binds
Substance: RIP1 (from UniProt Q13546 1-671)
